## Library screen at single concentrations

Chains of the proteins cited; added tags and fusions are not shown.
UniProt I6X8D2, whole entry: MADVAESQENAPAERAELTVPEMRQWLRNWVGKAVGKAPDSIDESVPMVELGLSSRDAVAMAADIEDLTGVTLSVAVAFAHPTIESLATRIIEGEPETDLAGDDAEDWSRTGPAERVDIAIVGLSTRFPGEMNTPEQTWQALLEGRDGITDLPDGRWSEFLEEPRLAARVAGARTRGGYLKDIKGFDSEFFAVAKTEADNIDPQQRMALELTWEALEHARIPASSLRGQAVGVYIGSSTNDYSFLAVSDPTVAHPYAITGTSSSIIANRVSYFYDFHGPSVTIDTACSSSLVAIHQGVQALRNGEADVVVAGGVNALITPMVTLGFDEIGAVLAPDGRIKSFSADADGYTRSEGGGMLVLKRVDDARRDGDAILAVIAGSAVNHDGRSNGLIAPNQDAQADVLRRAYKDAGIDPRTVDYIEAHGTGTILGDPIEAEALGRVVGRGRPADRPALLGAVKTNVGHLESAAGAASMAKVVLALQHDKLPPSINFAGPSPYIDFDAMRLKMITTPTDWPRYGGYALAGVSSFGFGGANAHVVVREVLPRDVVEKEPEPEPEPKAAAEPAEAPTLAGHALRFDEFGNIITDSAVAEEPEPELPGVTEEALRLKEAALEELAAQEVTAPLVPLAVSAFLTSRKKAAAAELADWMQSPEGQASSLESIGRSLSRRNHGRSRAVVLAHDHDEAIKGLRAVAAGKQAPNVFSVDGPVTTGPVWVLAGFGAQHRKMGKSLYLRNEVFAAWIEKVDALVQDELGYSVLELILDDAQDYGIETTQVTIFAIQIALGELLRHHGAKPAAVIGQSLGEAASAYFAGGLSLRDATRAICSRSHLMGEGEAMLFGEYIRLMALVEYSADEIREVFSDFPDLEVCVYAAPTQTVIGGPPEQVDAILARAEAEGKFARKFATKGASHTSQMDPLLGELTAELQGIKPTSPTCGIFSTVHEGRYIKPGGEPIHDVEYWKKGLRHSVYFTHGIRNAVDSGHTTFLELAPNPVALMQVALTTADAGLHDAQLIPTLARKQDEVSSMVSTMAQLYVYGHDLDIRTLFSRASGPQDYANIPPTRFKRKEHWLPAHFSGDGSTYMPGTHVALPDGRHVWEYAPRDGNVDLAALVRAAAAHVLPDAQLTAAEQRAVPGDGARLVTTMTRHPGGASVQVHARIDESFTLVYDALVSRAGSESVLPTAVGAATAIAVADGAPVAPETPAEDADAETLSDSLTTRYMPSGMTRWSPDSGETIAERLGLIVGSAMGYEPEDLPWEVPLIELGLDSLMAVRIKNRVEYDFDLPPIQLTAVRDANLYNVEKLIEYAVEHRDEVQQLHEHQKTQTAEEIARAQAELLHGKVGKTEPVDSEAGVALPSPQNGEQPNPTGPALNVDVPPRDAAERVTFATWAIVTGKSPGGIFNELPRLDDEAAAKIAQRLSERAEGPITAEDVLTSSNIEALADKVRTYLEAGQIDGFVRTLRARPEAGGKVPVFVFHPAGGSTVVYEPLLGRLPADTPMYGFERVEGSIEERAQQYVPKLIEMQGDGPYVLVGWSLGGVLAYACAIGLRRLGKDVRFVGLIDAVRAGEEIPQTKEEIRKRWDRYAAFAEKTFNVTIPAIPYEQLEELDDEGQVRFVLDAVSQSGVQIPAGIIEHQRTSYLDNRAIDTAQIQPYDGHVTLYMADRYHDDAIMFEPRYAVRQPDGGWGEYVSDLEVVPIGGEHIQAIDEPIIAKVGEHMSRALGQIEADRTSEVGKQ

Measurements from “University of Dundee, Small-Polar-MMV Screening Library” (2021), ChEMBL document CHEMBL3988442.

The filed quantity is “Percent Effect” (%).
The record does not define 0% and 100%; most values in the screen are far below 50% and negative numbers occur (in some assays of this library far below -100).
Compounds were drawn at random from those tested, without regard to their results.

A: 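Assay of Toxoplasma gondii numbers, read through their beta-galactosidase reporter with a colour substrate. Compounds at 10 µM. Higher reads as fewer parasites (inferred from which compounds were picked for retests). Size under these conditions: about 67,000 compounds, about 260 of them at 50% or above in at least one test.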
B: 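Enzyme assay of the thioesterase domain of polyketide synthase 13; the read-out is not stated. Target: Polyketide synthase Pks13, Mycobacterium tuberculosis (UniProt I6X8D2). Concentration: 30 µM. The record gives no direction; the compounds picked for IC50 retests had high values, so higher reads as stronger inhibition. About 67,000 compounds were tested under these conditions; 0.46% (about 300) showed 50% or more at least once.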

For CCNC(=O)N1C[C@@H](NC(C)=O)[C@H](c2ccc(C)o2)C1 the result was A: -3.04%; B: -5.657%.
For CCCc1nc(CN2CCCC2Cn2cncn2)no1 (stereo unspecified) the result was A: -12.44%; B: -12.22%.
For COc1ccccc1N1CCN(Cc2nc(C)c(C)o2)CC1 the result was A: -7.877%; B: -5.291%.
For COCC(=O)N1CCCn2c(CN3CCOCC3)nnc2C1 the result was B: -4.834%.
For c1ccc(-c2cccc(N3CCC(NCCc4cscn4)CC3)c2)cc1 the result was A: 34.82%; B: -61.79%.
For O=C(O)C(F)(F)F.O=C(O)C(F)(F)F.c1cncc(N2CCCC3(CCN(CCN4CCCC4)CC3)C2)c1 the result was A: 17.23%.
For c1cnnc(N2CCCC2CNc2ncnc3c2CCC3)c1 (stereo unspecified) the result was A: 14.68%; B: -12.99%.
For O=C(C1=CCCC1)N1CCC[C@]2(C[C@@H](OCc3ccccn3)CO2)C1 the result was B: -11.32%.
For Cc1cccnc1NC(=O)C1(n2cnnn2)CCCCC1 the result was A: 2.18%; B: -7.122%.
For CCc1cc(N2CCN(c3ccc(Cl)cn3)CC2)n2nccc2n1 the result was A: 2.363%; B: -12.54%.
For COCCN1CCN(Cc2nc(-c3ccoc3)no2)CC1 the result was A: 22.29%; B: -6.193%.
For Cc1ccc2c(n1)N(CCn1cccn1)CCN(C(=O)CC1CC1)C2.O=C(O)C(F)(F)F the result was A: 0.7974%.
For CCN(Cc1cccc(C(=O)Nc2cn(C)nn2)c1)[C@H]1COC[C@@H]1O the result was A: -7.476%; B: -11.5%.
For c1ccc(-c2cc(CC3(NCc4ncc[nH]4)COC3)no2)cc1 the result was A: 12.72%; B: -40.83%.
For CC(C)c1cc(COCCCC(=O)O)no1 the result was A: 2.787%; B: 17.88%.
For Cc1ccc(CNC(=O)CN2CCCC(Cn3cncn3)C2)s1 (stereo unspecified) the result was A: 6.933%; B: -16.03%.
For CCCS(=O)(=O)NCCn1ccc(-c2cccs2)n1 the result was A: -14.05%; B: -5.018%.
For Cn1cc(S(=O)(=O)NCCc2nnc3ccccn23)cn1 the result was A: 1.199%; B: -9.668%.
For O=C(N1CCCO1)[C@]12COC[C@H]1CN(Cc1cccnc1)C2 the result was B: -18.91%.
For Cc1noc(CNc2c(N3CCCC3)cccc2N2CCCC2)n1 the result was A: -1.382%; B: 10.93%.
For CN1CCCN(C(C(=O)O)c2ccc3c(c2)OCO3)CC1 (stereo unspecified) the result was A: 9.653%; B: -32.8%.
For [H][C@@]12CCN(Cc3cc(C)on3)C[C@]1([H])OCCN(c1cccnc1)C2=O the result was A: 4.756%.
For CC/C=C(/C)C(=O)NS(=O)(=O)c1ccc(C#N)c(C(F)(F)F)c1 the result was A: 8.69%.
For O=C(O)C(F)(F)F.O=C(O)C(F)(F)F.c1cncc(-c2ccc3c(c2)CCC32CCN(Cc3nccs3)CC2)c1 the result was A: 3.945%.
For Cc1ccc(-n2cc(CN3CCOCC(CN(C)C)C3)cn2)cc1C (stereo unspecified) the result was A: 12.97%; B: -12.21%.
For O=C(c1ncn2c1CNS(=O)(=O)c1ccccc1-2)N1CC=CC1 the result was A: -15.77%.
For COCCn1cc(C(=O)N2CCCC2c2cccs2)c2ccccc21 (stereo unspecified) the result was A: -11.47%; B: -19.92%.
For CC(C)(C)c1n[nH]cc1CNC1CCC(C(F)(F)F)CC1.Cl (stereo unspecified) the result was A: -4.197%.
For CCOCC(=O)N1CCc2c(CN(C)C)nn(C(C)C)c2C1 the result was B: -35.93%.
For CC(C)CC(=O)Nc1cccc(CNCc2cccs2)c1 the result was A: 4.089%; B: -13.58%.
For [H][C@@]12C[C@H](c3nnc(C)o3)O[C@@]1([H])CCN(Cc1cc(C)on1)C2 the result was A: 1.389%.
For CCC[C@H]1CN(c2nc(CO)cs2)C[C@@H]1NC(=O)C1CCC1 the result was A: 12.16%; B: 10.04%.
For Fc1cccc(N2CCCC3(CN(Cc4cccnc4)CCO3)C2)c1.O=C(O)C(F)(F)F.O=C(O)C(F)(F)F.O=C(O)C(F)(F)F (stereo unspecified) the result was A: -12.5%.
For Cc1ccccc1CSc1ncc(Br)c(C(=O)O)n1 the result was A: 5.586%; B: -2.025%.
For Cc1ccccc1C(=O)Nc1ccc(OC2CCN(C)CC2)cc1 the result was A: 2.433%; B: -2.359%.
For CC1(C)[C@H]2CC=C(CN3CCCn4nc(C(=O)O)cc4C3)[C@@H]1C2 the result was B: -12.08%.
For O=C(c1ccc(-c2ccc(O)nc2)s1)N1CCCCCC1 the result was A: 59.06%; B: -6.212%.
For CN(C)[C@@H]1CCN(C(=O)NC2CCCC2)[C@H]1Cc1ccncc1 the result was B: -12.86%.
For CC(=O)N1CCC2(C1)C(=O)N(CC1CC1)c1ccccc12 (stereo unspecified) the result was A: -4.253%; B: 42.98%.
For CC(=O)N1CCC(n2ccc(-c3cnc(N4CCOCC4)nc3)n2)CC1 the result was A: -24.8%; B: 17.17%.
For CC1CN(S(=O)(=O)c2cc(S(C)(=O)=O)ccc2Br)c2cccnc2O1 (stereo unspecified) the result was A: 1.063%; B: -20.94%.
For O=C(c1ccc[nH]1)N1C[C@H]2CC[C@@H]1CN(C1Cc3ccccc3C1)C2 the result was B: -9.607%.
For CCOCCn1nnc(C2(NC(=O)c3ccccc3)CCCC2)n1 the result was A: -0.1101%; B: -9.203%.
For Cc1cc(N(C)CCCn2cccn2)nc(N)n1 the result was A: 15.49%; B: -3.8%.